Results are given in words; binding and its absence hold for the method and conditions named. Binding seen in cells or lysates may run through a third protein. Some entries that bind do so weakly or less than the wild type.
Molecular target: p21 (encoded by the CDKN1A gene) (human (endogenous in HeLa and HCT116)) (UniProt P38936)
Experiment: proximity ligation; fixed, permeabilised cells; primary antibodies against NPM1 and p21; cells transfected with siCtrl or siFANCA, with or without actinomycin D overnight; single primary antibodies as negative controls

Amino acid sequences for entries named in this document (tags omitted).
UniProt P38936: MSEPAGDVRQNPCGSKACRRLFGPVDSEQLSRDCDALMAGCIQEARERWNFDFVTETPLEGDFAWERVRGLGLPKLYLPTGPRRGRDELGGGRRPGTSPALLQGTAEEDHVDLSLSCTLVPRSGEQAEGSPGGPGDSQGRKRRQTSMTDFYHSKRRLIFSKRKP
UniProt P06748: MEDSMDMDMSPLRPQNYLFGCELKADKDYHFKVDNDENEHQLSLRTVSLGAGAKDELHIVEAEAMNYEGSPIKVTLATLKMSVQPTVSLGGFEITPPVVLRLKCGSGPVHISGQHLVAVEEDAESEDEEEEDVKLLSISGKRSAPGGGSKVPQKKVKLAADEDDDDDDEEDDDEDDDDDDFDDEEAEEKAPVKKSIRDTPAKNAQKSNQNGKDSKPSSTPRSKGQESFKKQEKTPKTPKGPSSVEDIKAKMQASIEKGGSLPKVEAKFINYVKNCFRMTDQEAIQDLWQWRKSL

binding: binds
Substance: nucleolar protein NPM1 (from UniProt P06748 1-294)
